This series relates to human ileal apical-out enteroids. Description: Cytotoxicity by LDH leakage assay in apical-out enteroids. Type of series: cell-based. The settings on record: apical-out enteroids vs MIC against Gram-positive bacteria (ref 17). The procedure: Cytotoxicity and effects on cell viability after exposure to glab, licoA, and glycy in apical-out and apical-in enteroids (6.25–500 μg mL^–1) and proliferating Caco-2 cells (3.13–100 μg mL^–1) were determined by LDH leakage (Section 2.6.1) and WST-1 assays (Section 2.6.2), respectively. For this, stock solutions of 50 mg mL^–1 of glab, licoA, and glycy in DMSO were used. […] An overview of the experimental conditions for the exposure experiments with glab, licoA, and glycy is shown in Table S2 (Supporting Information). In brief, apical-out and apical-in enteroids were grown for 7–10 days in OGM (∼200 enteroids per dome), after which the medium was changed to ODM (supplemented with 5 μM DAPT) to initiate enteroid differentiation. To generate apical-out enteroids, MG was removed from apical-in enteroids in OGM at day 7–10, as described in Section 2.3, and suspended in supplemented ODM. After 3 days in ODM, the effects on cytotoxicity and cell viability of glab, licoA, and glycy in apical-out and apical-in enteroids (passages between 3 and 17) were assessed after 4 and 24 h of incubation. For apical-out enteroids in a suspension, enteroids were pelleted by centrifugation (2 min, 200g, RT), after which the ODM was removed and 500 μL of the experimental agent was added. […]
Cytotoxic effects of glab, licoA, and glycy were assessed by measuring leakage of intracellular lactate dehydrogenase (LDH) in the supernatant and analyzed using an LDH cytotoxicity detection kit (Roche Applied Science, Almere, The Netherlands), according to the manufacturer’s instructions. The LDH activity in the supernatant was expressed as the percentage of the maximum releasable LDH in enteroids or Caco-2 cells (enteroids or Caco-2 cells treated with 1% (v/v) Triton X-100) and calculated with eq 1. […] 1 in which exp. value is the UV absorbance at 492 nm (Tecan Spark or Tecan Infinite 200 Pro, Tecan Group Ltd., Zürich, Switzerland), background control is the medium with corresponding concentration of glab, licoA, or glycy, and high control is the maximum releasable LDH in enteroids or Caco-2 cells. […]
For `CC1(C)C=Cc2c(ccc3c2OC[C@@H](c2ccc(O)cc2O)C3)O1` [glabridin], the “highest nontoxic concentration relative to MIC” value was determined as 20 times.

Turning to `C=CC(C)(C)c1cc(/C=C/C(=O)c2ccc(O)cc2)c(OC)cc1O` [licochalcone A], the “highest nontoxic concentration relative to MIC” value is given as “at least 40 times”.

Consider `COc1c(CC=C(C)C)c(O)cc2oc(=O)c(-c3ccc(O)cc3O)cc12` [glycycoumarin], for which the “highest nontoxic concentration relative to MIC” value is listed as “at least 40 times”.
